The target of assay [1] is (MBP-)Dim1 (S. cerevisiae), P41819. The assay can be described thus: condition: 5 µM untagged protein, 3 µM MBP-tagged protein; pull-down; 3 µM MBP-tagged bait and 5 µM untagged prey in 50 mM HEPES pH 7.5, 150 mM KCl; 10 min at room temperature, 1 h at 4°C with amylose resin; washed, eluted with 20 mM maltose; SDS-PAGE, Coomassie; both purified. To be noted: remark: other sources report otherwise.

The chains behind the UniProt entries cited, without tags or fusion partners.
UniProt P41819: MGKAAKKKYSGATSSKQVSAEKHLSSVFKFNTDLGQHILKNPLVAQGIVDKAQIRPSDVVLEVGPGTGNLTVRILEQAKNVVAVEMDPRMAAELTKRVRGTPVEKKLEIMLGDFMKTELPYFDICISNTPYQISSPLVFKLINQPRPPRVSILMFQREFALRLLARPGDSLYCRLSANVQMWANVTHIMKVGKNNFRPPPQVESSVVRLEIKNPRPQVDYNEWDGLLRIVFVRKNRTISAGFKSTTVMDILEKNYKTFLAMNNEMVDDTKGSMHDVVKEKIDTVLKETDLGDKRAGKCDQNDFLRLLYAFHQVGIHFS
UniProt P40160: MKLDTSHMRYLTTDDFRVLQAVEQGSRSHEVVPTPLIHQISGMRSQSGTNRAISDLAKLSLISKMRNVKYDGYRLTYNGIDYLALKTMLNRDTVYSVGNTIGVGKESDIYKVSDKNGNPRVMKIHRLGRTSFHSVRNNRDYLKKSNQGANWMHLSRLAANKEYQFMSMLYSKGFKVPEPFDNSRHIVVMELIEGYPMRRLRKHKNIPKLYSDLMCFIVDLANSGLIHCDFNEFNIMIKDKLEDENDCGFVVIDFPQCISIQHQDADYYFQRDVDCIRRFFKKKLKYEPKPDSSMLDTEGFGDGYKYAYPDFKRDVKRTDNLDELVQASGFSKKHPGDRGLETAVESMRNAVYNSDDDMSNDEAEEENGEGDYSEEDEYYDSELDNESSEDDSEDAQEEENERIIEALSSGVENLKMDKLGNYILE

The target in assay [2] is T1, (MBP-)Rps3 (S. cerevisiae), P05750.
T1 chain: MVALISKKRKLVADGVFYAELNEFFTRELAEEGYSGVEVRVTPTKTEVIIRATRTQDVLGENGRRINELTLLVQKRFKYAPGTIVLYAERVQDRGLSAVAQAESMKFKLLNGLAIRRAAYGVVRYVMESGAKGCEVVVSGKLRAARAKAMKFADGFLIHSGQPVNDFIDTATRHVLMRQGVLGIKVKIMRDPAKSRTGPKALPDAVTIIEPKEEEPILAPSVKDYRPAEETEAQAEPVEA
The assay can be described thus: pull-down; (MBP-)Rps3 as bait with untagged Ltv1 and Enp1 together (test for a ternary complex); amylose resin, SDS-PAGE; both purified. The conditions noted are these: remark: other sources report otherwise.

For assay [3] the target is unchanged. Description: condition: 5 µM untagged protein, 3 µM MBP-tagged protein; pull-down; 3 µM MBP-tagged bait and 5 µM untagged prey in 50 mM HEPES pH 7.5, 150 mM KCl; 10 min at room temperature, 1 h at 4°C with amylose resin; washed, eluted with 20 mM maltose; SDS-PAGE, Coomassie; both purified. To be noted: remark: other sources report otherwise.
In assay [4] the target is (MBP-)Rio2 (S. cerevisiae) (UniProt P40160). Description: pull-down; 3 µM MBP-tagged bait and 5 µM untagged prey in 50 mM HEPES pH 7.5, 150 mM KCl; 10 min at room temperature, 1 h at 4°C with amylose resin; washed, eluted with 20 mM maltose; SDS-PAGE, Coomassie; both purified.
Assay [5] deals with T2, (MBP-)Tsr1 (S. cerevisiae), Q07381.
T2 chain: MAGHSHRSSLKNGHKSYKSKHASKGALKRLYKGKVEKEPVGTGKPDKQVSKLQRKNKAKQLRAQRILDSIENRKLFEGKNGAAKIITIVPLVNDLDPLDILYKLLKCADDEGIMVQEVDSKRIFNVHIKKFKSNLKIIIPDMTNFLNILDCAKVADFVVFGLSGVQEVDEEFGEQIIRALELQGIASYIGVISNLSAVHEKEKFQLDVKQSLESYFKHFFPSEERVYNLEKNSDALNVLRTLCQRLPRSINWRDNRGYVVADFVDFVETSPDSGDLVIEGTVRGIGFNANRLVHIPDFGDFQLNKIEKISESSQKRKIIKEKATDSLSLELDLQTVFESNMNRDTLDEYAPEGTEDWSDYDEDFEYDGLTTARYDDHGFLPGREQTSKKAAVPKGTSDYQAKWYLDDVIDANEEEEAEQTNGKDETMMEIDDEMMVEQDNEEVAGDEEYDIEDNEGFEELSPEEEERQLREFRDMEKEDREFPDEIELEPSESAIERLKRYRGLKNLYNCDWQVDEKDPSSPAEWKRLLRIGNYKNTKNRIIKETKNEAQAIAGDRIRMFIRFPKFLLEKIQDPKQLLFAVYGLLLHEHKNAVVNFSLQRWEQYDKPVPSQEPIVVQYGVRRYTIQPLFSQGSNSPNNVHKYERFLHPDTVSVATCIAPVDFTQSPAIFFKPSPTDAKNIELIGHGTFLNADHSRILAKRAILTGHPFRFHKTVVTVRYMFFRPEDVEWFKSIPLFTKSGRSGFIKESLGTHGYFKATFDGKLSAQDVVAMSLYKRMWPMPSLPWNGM
The assay can be described thus: condition: 5 µM untagged protein, 3 µM MBP-tagged protein; pull-down; 3 µM MBP-tagged bait and 5 µM untagged prey in 50 mM HEPES pH 7.5, 150 mM KCl; 10 min at room temperature, 1 h at 4°C with amylose resin; washed, eluted with 20 mM maltose; SDS-PAGE, Coomassie; both purified. The conditions noted are these: remark: other sources report otherwise.

The target in assay [6] is (MBP-)Dim1 (S. cerevisiae) (UniProt P41819). Description: pull-down; 3 µM MBP-tagged bait and 5 µM untagged prey in 50 mM HEPES pH 7.5, 150 mM KCl; 10 min at room temperature, 1 h at 4°C with amylose resin; washed, eluted with 20 mM maltose; SDS-PAGE, Coomassie; both purified.
Assay [7] concerns the target T3, (MBP-)Nob1 (S. cerevisiae) (UniProt Q08444).
T3 sequence: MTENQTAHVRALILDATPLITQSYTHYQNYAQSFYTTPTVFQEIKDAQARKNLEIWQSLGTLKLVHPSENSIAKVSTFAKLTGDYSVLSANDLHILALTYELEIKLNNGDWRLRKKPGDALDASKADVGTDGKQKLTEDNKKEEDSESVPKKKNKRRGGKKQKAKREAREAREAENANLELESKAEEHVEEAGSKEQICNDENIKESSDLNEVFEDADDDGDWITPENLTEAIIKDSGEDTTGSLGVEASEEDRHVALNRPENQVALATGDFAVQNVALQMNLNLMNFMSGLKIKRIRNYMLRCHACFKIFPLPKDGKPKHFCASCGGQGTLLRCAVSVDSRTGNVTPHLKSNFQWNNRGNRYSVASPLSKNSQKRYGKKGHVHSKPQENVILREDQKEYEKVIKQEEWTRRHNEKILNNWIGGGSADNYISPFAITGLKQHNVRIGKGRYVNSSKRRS
The assay is described as above.

These are yes or no findings as the source states them, for the method shown. Some binding calls cover weakened binding; strength is not graded here. Sequences can lack the tags named with a protein.

B1: Dim2/Pno1 (untagged), Q99216 1-274 (protein)
chain: MVAPTALKKATVTPVSGQDGGSSRIIGINNTESIDEDDDDDVLLDDSDNNTAKEEVEGEEGSRKTHESKTVVVDDQGKPRFTSASKTQGNKIKFESRKIMVPPHRMTPLRNSWTKIYPPLVEHLKLQVRMNLKTKSVELRTNPKFTTDPGALQKGADFIKAFTLGFDLDDSIALLRLDDLYIETFEVKDVKTLTGDHLSRAIGRIAGKDGKTKFAIENATRTRIVLADSKIHILGGFTHIRMARESVVSLILGSPPGKVYGNLRTVASRLKERY
In the case of B1, the binding result in assay [1] was “no binding”.

B2: Enp1 (untagged), P38333 1-483 (protein)
chain: MARASSTKARKQRHDPLLKDLDAAQGTLKKINKKKLAQNDAANHDAANEEDGYIDSKASRKILQLAKEQQDEIEGEELAESERNKQFEARFTTMSYDDEDEDEDEDEEAFGEDISDFEPEGDYKEEEEIVEIDEEDAAMFEQYFKKSDDFNSLSGSYNLADKIMASIREKESQVEDMQDDEPLANEQNTSRGNISSGLKSGEGVALPEKVIKAYTTVGSILKTWTHGKLPKLFKVIPSLRNWQDVIYVTNPEEWSPHVVYEATKLFVSNLTAKESQKFINLILLERFRDNIETSEDHSLNYHIYRAVKKSLYKPSAFFKGFLFPLVETGCNVREATIAGSVLAKVSVPALHSSAALSYLLRLPFSPPTTVFIKILLDKKYALPYQTVDDCVYYFMRFRILDDGSNGEDATRVLPVIWHKAFLTFAQRYKNDITQDQRDFLLETVRQRGHKDIGPEIRRELLAGASREFVDPQEANDDLMIDVN
For the molecule B2, the binding entry in assay [2] and in assay [3] was “no binding” each time.

B3: Nob1 (untagged) (protein, UniProt Q08444 1-459)
chain: T3 sequence
Regarding B3, the binding entry in assay [4] is on record as “binds”.

B4: Nob1 (untagged), Q08444 1-459 (protein)
chain: T3 sequence
As to B4, the binding result in assay [5] is on record as “no binding”.

B5: Ltv1 (untagged) (protein, UniProt P34078 1-463)
chain: MSKKFSSKNSQRYVVVHRPHDDPSFYDTDASAHVLVPVSNPNKTSPEADLRKKDVSSTKPKGRRAHVGEAALYGINFDDSEYDYTQHLKPIGLDPENSIFIASKGNEQKVEKKNIEDLFIEPKYRRDEIEKDDALPVFQRGMAKPEYLLHQQDTTDEIRGFKPDMNPALREVLEALEDEAYVVNDDVVVEDISKKTQLQGDNYGEEEKEDDIFAQLLGSGEAKDEDEFEDEFDEWDIDNVENFEDENYVKEMAQFDNIENLEDLENIDYQADVRRFQKDNSILEKHNSDDEFSNAGLDSVNPSEEEDVLGELPSIQDKSKTGKKKRKSRQKKGAMSDVSGFSMSSSAIARTETMTVLDDQYDQIINGYENYEEELEEDEEQNYQPFDMSAERSDFESMLDDFLDNYELESGGRKLAKKDKEIERLKEAADEVSKGKLSQRRNRERQEKKKLEKVTNTLSSLKF
Take B5: the binding entry in assay [6] and in assay [7] was “binds weakly” throughout.

B6: Ltv1 (untagged), P34078 1-463 (protein)
chain: B5 chain
Regarding B6, the binding result in assay [2] and in assay [3] was “no binding” in each case.
